Some of the results follow.

In this assay the target is T1, OsSMF1 (Oryza sativa, UniProt Q6ZLB0 1-436).
T1 sequence: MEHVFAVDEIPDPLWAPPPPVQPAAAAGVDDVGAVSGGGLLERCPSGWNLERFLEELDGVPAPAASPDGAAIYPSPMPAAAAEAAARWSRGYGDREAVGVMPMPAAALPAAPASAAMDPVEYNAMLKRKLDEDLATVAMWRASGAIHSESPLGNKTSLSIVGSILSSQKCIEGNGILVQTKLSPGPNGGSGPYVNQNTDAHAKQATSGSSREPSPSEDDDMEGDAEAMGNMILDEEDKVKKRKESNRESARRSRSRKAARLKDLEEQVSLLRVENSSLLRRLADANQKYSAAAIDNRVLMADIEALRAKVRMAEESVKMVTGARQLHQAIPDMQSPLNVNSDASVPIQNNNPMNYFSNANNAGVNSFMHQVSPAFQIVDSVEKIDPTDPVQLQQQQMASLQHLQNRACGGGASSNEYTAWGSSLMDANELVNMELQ
Description: protein-binding microarray (RPBM); PBS, 2% BSA, 51.3 ng/ul salmon testes DNA, 50 uM zinc acetate, 200 nM TF, 25 C, 1 h; high values mean tight binding. Particulars: protein: recombinant; tags: N-terminal polyhistidine and DsRed monomer fusion (pET32a); chain copies: 2; label: CyDye5-dUTP incorporated in the synthesized complementary strand; 3' TTTTT single-stranded linker to array surface; dsDNA, one strand shown. In short, it runs like this:
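A custom Agilent array was converted to double-stranded form by primer extension with Cy5-dUTP and blocked with 2% BSA. Protein at 200 nM in PBS with 2% BSA, salmon testes DNA and 50 µM zinc acetate was applied for 1 h at 25 °C, followed by washing. The proteins were polyhistidine–DsRed N-terminal fusions of transcription factors, expressed in E. coli BL21-CodonPlus and Ni–NTA-purified. The binding signal is per-feature fluorescence intensity (arbitrary units) from an Axon 4000B scanner.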
In the case of “ATTGTTATATCTGTTGCTGGTAAGACCGTTGCCAGCGTGGCGGAGTCACCTAGTGCAG”, the binding signal was 7900 fluorescence intensity (a.u.). The value for “ACGGGACGGCCGACGGCGACGGCGCGACAGCGGCGGGCATCGGAGTCACCTAGTGCAG” was 28000 fluorescence intensity (a.u.); that for “GCAGCAGCAGCTCATCTGCTGCTGACGCTGCCACCGGCACCGGAGTCACCTAGTGCAG” was 7850 fluorescence intensity (a.u.).

With “GTCGTCGTCTACTTCGCTGCCGCGTCCTCCATCCTCCATGCGGAGTCACCTAGTGCAG”, the binding signal is 5180 fluorescence intensity (a.u.).

Consider “CAATTTAATGCTACTTATCTCACATGATGTCTTGGATGTTCGGAGTCACCTAGTGCAG”, for which the binding signal is 3980 fluorescence intensity (a.u.).

Turning to “CAATTCTACAATATGCCACTGAGTTTACCAAGTTATACAACGGAGTCACCTAGTGCAG”, the binding signal is 4020 fluorescence intensity (a.u.). On to “TGGTTGCAAGTGTGCATAGCTTGTCATTTTGTGACATGGGCGGAGTCACCTAGTGCAG”, for which the binding signal is 3320 fluorescence intensity (a.u.).

Turning to “GTTGCCGATTTTGGCCTTGCCAAACTGTACCCACGGGATACGGAGTCACCTAGTGCAG”, the binding signal is 3230 fluorescence intensity (a.u.). The value for “TGTTCTTGAGCTCACGCTCCACCTCCATGACATCTATGGACGGAGTCACCTAGTGCAG” was 3530 fluorescence intensity (a.u.). With “CACCATATTAATATATTAGGAAGTGTACGTAAGCATCCATCGGAGTCACCTAGTGCAG” the figure was 3390 fluorescence intensity (a.u.); with “ACAAATTGTTTACGTGCGTCAGGCCGCCGCTGTGATGACACGGAGTCACCTAGTGCAG”, 5690 fluorescence intensity (a.u.); with “GCAGCGGGCATGACAATTTTGTCCTGCCACGCCAGCAAGACGGAGTCACCTAGTGCAG”, 16800 fluorescence intensity (a.u.). With “TCCCCAAGTCAGTCAATGCCATCACTGTCATCTGCTCTCACGGAGTCACCTAGTGCAG” the figure was 3200 fluorescence intensity (a.u.); with “CGCCACAAGCTTCCGGCCCCTAGATAGCCCGCGAAGCCAACGGAGTCACCTAGTGCAG”, 4160 fluorescence intensity (a.u.). On to “GCGCCGGCGAGGGTGAGGTCCGGAACGTGACGGTGGAGTCCGGAGTCACCTAGTGCAG”, for which the binding signal was 4220 fluorescence intensity (a.u.). The value for “TGCCACGTCAGCGAAAACCACCATCTAAACCACCGCCATGCGGAGTCACCTAGTGCAG” was 7960 fluorescence intensity (a.u.); that for “TCCATGCAGGAAGTCAGCAACACCAGTTGATGACACCAACCGGAGTCACCTAGTGCAG” was 3710 fluorescence intensity (a.u.); that for “TATGTTATTATGGTGTAGGCAGACGTGTATTTAATTATTTCGGAGTCACCTAGTGCAG” was 6150 fluorescence intensity (a.u.).

Regarding “TACGAACGTCCGTCTCTGCCGCACGTGACGGTGGAGCGCCCGGAGTCACCTAGTGCAG”, the binding signal was 4550 fluorescence intensity (a.u.). Take “CGTGGGCCCTACACTGACTCAGCCGCCACGTCAACAAAACCGGAGTCACCTAGTGCAG”: the binding signal was 26000 fluorescence intensity (a.u.).

Consider “AGACAGATTGGGATGAATCAAATGTCCAGCCTACGTGGACCGGAGTCACCTAGTGCAG”, for which the binding signal was 13100 fluorescence intensity (a.u.). The value for “CGATCTCGCCGGCGACACCGCCGCCACCGCGCCTCCGCCTCGGAGTCACCTAGTGCAG” was 3240 fluorescence intensity (a.u.).

For “TTGTGATTTGTGGGATTAGTATCTCTGTCGGTGTCATATCCGGAGTCACCTAGTGCAG”, the binding signal is 3630 fluorescence intensity (a.u.). With “ACTTTTCTCCGTCATCGATCTCTCTTGCCTTAAATGGACGCGGAGTCACCTAGTGCAG” the figure was 4020 fluorescence intensity (a.u.); with “CTCCGCCTCCACGTGTCACTGATCGGTGGGCCCAGGGACCCGGAGTCACCTAGTGCAG”, 8880 fluorescence intensity (a.u.). As for “AAGGTGCCAGGCCACGTGGGCGATTGTGTCTGCCTCAAGCCGGAGTCACCTAGTGCAG”, the binding signal is 11100 fluorescence intensity (a.u.). With “TCGCCATCTCCACCTCCTCCATTCCACCTCCACTCCCGCTCGGAGTCACCTAGTGCAG” the figure was 3280 fluorescence intensity (a.u.). With “AACATTGAGAGATATTCTTGCATCCAATGATCCATCACTTCGGAGTCACCTAGTGCAG” the figure was 17100 fluorescence intensity (a.u.); with “ACCTTAGTGTAGTTGACAAACATCTGGCCTTGCTATATTTCGGAGTCACCTAGTGCAG”, 3440 fluorescence intensity (a.u.). The value for “ATTTGTAAACAATGTTACTATCACTTTATCAGATGAAGAACGGAGTCACCTAGTGCAG” was 34600 fluorescence intensity (a.u.); that for “CATACATCAATCAGTTCTTGATTTGACCGGCATTGTATTGCGGAGTCACCTAGTGCAG” was 3220 fluorescence intensity (a.u.); that for “GTAAACTTATTCGATATACATTCCATGCATGGAAGTATCACGGAGTCACCTAGTGCAG” was 3390 fluorescence intensity (a.u.). In the case of “GTTAGCGTGGCATGCCACGTCATCTCACGAAGCGGGTTAGCGGAGTCACCTAGTGCAG”, the binding signal was 18100 fluorescence intensity (a.u.). With “GGCAAACCGCAAAATGGTGGTGGCTCCTCTCCTCGCCGCCCGGAGTCACCTAGTGCAG” the figure was 25700 fluorescence intensity (a.u.). For the sequence “GCATGCTAGAACCTCCATACTCATACTCGTAAAAGTAAGTCGGAGTCACCTAGTGCAG”, the binding signal is 3260 fluorescence intensity (a.u.).

Turning to “TGCCAAGGTACCATCAACATCGAGCTGCTGATGGCCCCTACGGAGTCACCTAGTGCAG”, the binding signal was 3410 fluorescence intensity (a.u.).

As to “CCTCCATAGAGGGATCAACTACGGTGAGGTGGAGTGCTTTCGGAGTCACCTAGTGCAG”, the binding signal was 3960 fluorescence intensity (a.u.). On to “TTTAGATGGCGGTTTTGGCTGACGTGGCGTCTACGTGACGCGGAGTCACCTAGTGCAG”, for which the binding signal is 30700 fluorescence intensity (a.u.). The value for “GCTTTGAGATAAACAAAGGGTCAAGTGCCGCGTGAGGTGGCGGAGTCACCTAGTGCAG” was 4470 fluorescence intensity (a.u.). With “GCTTGGTCCATACCTTGTTTTCCTATCATCCACTGTCAATCGGAGTCACCTAGTGCAG” the figure was 3160 fluorescence intensity (a.u.); with “GACCTAAAGTCCTAAACTAACCAAGTAGCCAGTCAACTGGCGGAGTCACCTAGTGCAG”, 4320 fluorescence intensity (a.u.). The value for “AATATAAAGCCCACGCAACCATCCACCTAGCATAAGGGTTCGGAGTCACCTAGTGCAG” was 3310 fluorescence intensity (a.u.).
